For at least one compound, name, drawing or mass did not settle the structure.
Tests used:
[1] = test system: BG01 cells; assay: Flow cytometry analysis of CD9 expression; assay type: cell-based, human; conditions: compared with spontaneous differentiation in adherent culture or embryoid bodies; 80 μM LY 294002, 30 nM rapamycin
[2] = test system: hES cell line BG01; assay: Q-PCR gene expression assay of marker genes; assay type: cell-based, human; conditions: for expression of pan-neurectodermal marker SOX1 or pan-extraembryonic marker SOX7: 80 μM LY 294002, 30 nM rapamycin; for expression of genes associated with mesendoderm (goosecoid/Brachyury/Cerebrus): treatment for 1-3 days, 80 μM LY 294002, 30 nM Rapamycin
[3] = test system: BG02 cells; assay: Q-PCR marker gene expression in BG02 cells; assay type: cell-based, human; conditions: BG02, 60 μM, approximately 72 hours
[4] = test system: BG01 cells; assay: Morphology of BG01 cells cultured with PI3-kinase pathway inhibitors (microscopy); assay type: cell-based, human; conditions: for morphological change of BG01 cells: approximately 72 hours, LY 294002 20-163 μM, Rapamycin 1.5-30 nM
[5] = test system: BG01 cells; assay: Sox17 Q-PCR, LY 294002 with conditioned medium or TGFβ members; assay type: cell-based, human
Description: BG01 cells were passaged from feeders using the collagenase/trypsin method and were plated on matrigel coated dishes at 1×10^5 cells/35 mm dish in unconditioned hES medium (UCM). After approximately 24 hours, the media was replaced with fresh hES medium or MEF-CM, along with LY 294002, Activin A, or Nodal as shown in FIG. 8A. LY 294002 was used at a concentration of approximately 60 μM; Activin A was used at a concentration of approximately 100 ng/ml; and Nodal was used at a concentration of approximately 1 μg/ml. Cells were treated for approximately 4 days, with a change in medium every 24 hours. Cells were harvested using the collagenase/trypsin method for Q-PCR analysis. Sox-17 Q-PCR was performed as described in Example 3.

[6] = test system: hESCs; assay: Kidney capsule assay of LY 294002 treated hESCs; assay type: in vivo, SCID-beige mice
Description: Untreated hESCs or hESCs treated for 4 days with 60 μM LY 294002 were collagenase treated to generate cell aggregates (˜50 cells/aggregate), washed in warm media, then gently resuspended in 2 ml DMEM/F12, 10% FCS and left overnight at 37° C., 10% CO2 to facilitate further aggregation. Approximately 2.5×10^6 cells were injected into the kidney capsule of 5 week old male SCID-beige mice. 6 weeks after transplantation, mice were sacrificed, and the kidneys were removed and fixed in 4% paraformaldehyde. Following fixation, kidneys were embedded in paraffin wax, sectioned and mounted onto glass slides in preparation for H&E and immunostaining. After mounting, slides underwent deparaffinization, rehydration and heat induced epitope retrieval with Trilogy (Cell Marque, CMX-833). Slides were stained using the alkaline phosphatase Vectastain ABC System (Vector Labs, AK-5002) and Vector Red substrate (Vector Labs, SK-5100). […] For fluorescence immunocytochemistry the following secondary antibodies were used; Alexa Fluor 488 goat anti-mouse IgG (Molecular Probes, A11001), Alexa Fluor 594 goat anti-rabbit IgG (Molecular Probes, A11012).

[7] = test system: H1 cells; assay: Q-PCR marker gene expression in H1 cells; assay type: cell-based, human; conditions: H1, 60 μM, approximately 72 hours
[8] = test system: BG01 cell line; assay: SOX17 and AFP immunofluorescence staining; assay type: cell-based, human; conditions: LY 294002 80 μM, rapamycin 30 nM
Description: Cells to be immunostained were grown on chamber slides, and were rinsed once with 1×PBS and fixed for 10 minutes in 4% PFA/4% sucrose in PBS pH 7.4 at room temperature. They were then rinsed 3× in 1×PBS and blocked in 3% goat serum with 0.1% Triton-X100 in PBS for 1 hour at room temperature. Primary antibodies were diluted in 3% goat serum in PBS and this solution was applied overnight at 4° C. The primary antibodies used were rabbit anti-human AFP (Zymed), used at a 1:50 dilution, and rat anti-human SOX17 (obtained from Cythera, Inc.), used at 1:1000 dilution. Cells were washed for 1 hour with 3 changes of 1×PBS. Secondary antibodies were applied for 2 hours at room temperature. Secondary antibodies used were goat anti-rabbit Alexa Fluor 488 and goat anti-rat Alexa Fluor 594 (Molecular Probes), both at a 1:1000 dilution in 3% goat serum in 1×PBS. Cells were washed for 1 hour with 3 changes of 1×PBS. The chambers were removed and slides were mounted in VectaShield mounting medium with DAPI (Vector).

[9] = test system: PI3-kinase signaling pathway; assay: Western blot of phosphorylated PKB/Akt, S6 kinase and S6 protein; assay type: cell-based, human; conditions: BG01 cells maintained in presence of inhibitor
[10] = test system: BG01 cells; assay: Flow cytometry analysis of thrombomodulin expression; assay type: cell-based, human; conditions: 80 μM
[11] = test system: BG01 cells; assay: RT-PCR analysis of lineage markers; assay type: cell-based, human; conditions: 80 μM LY 294002, 30 nM rapamycin
[12] = test system: hES cells; assay: Cell surface CD markers of hES cells after LY 294002 treatment; assay type: cell-based, human; conditions: markers initially expressed by undifferentiated hES cells
[13] = cells plated at approximately 4×10^5 cells/35 mm dish or higher
[14] = cells plated lower than approximately 2×10^5 cells/35 mm dish, conditioned medium

O=c1cc(N2CCOCC2)oc2c(-c3ccccc3)cccc12 [LY 294002]
expression of CD9 [1]: decreased more rapidly | expression of pan-neurectodermal marker SOX1 or pan-extraembryonic marker SOX7 [2]: do not induce expression | expression of genes associated with mesendoderm (goosecoid/Brachyury/Cerebrus) [2]: quantitatively induces the expression | expression of AFP, Mox1, Sox1, THBD, and ZIC1 [3]: either not substantially increased, or showed reduced expression | levels of Sox17, MixL1, Bry, FoxA2, and GSC [3]: increased levels | changes in morphology [4, 13]: did not demonstrate the same morphological changes | changes in morphology [4, 14]: displayed changes in morphology | morphological change of BG01 cells ([4]; conditioned medium): undergo morphological change | Sox17 expression (fold-increase over untreated) ([5]; CM, LY approximately 60 μM, approximately 4 days): Significant Sox17 expression | Sox17 expression (fold-increase over untreated) ([5]; LY 294002 in the absence of CM, Activin or Nodal): not | Sox17 expression (fold-increase over untreated) ([5]; UCM, LY 294002 approximately 60 μM plus Activin A approximately 100 ng/ml, approximately 4 days): Significant Sox17 expression | Sox17 expression (fold-increase over untreated) ([5]; UCM, LY 294002 approximately 60 μM plus Nodal approximately 1 μg/ml, approximately 4 days): Significant Sox17 expression | immunostaining of treated aggregates: TTF-1, AFP, villin, gastrin, HSA, LFABP ([6]; approximately 6 weeks under kidney capsule): differentiate to derivatives of endoderm | growth of implanted treated hESCs on kidney ([6]; hESCs treated 4 days with 60 μM, 6 weeks under kidney capsule): formed a large mass on the kidney | expression of AFP, Mox1, Sox1, THBD, and ZIC1 [7]: either not substantially increased, or showed reduced expression | levels of Sox17, MixL1, Bry, FoxA2, and GSC [7]: increased levels | expression of AFP (immunofluorescence double-staining) [8]: no significant expression of AFP | activity of Akt, S6 kinase and S6 [9]: inhibited | levels of thrombomodulin [10]: decreased levels | markers indicative of early differentiation (RT-PCR) [11]: detected | cell surface CD markers CD9, 27, 30, 46, 58 and 81 [12]: loss of a subset of cell surface CD markers

CO[C@H]1C[C@@H]2CC[C@@H](C)[C@@](O)(O2)C(=O)C(=O)N2CCCC[C@H]2C(=O)O[C@H]([C@H](C)C[C@@H]2CC[C@@H](O)[C@H](OC)C2)CC(=O)[C@H](C)/C=C(\C)[C@@H](O)[C@@H](OC)C(=O)[C@H](C)C[C@H](C)/C=C/C=C/C=C/1C [Rapamycin]
expression of CD9 [1]: decreased more rapidly | expression of pan-neurectodermal marker SOX1 or pan-extraembryonic marker SOX7 [2]: do not induce expression | expression of genes associated with mesendoderm (goosecoid/Brachyury/Cerebrus) [2]: quantitatively induces the expression | changes in morphology [4, 13]: did not demonstrate the same morphological changes | changes in morphology [4, 14]: displayed changes in morphology | morphological change of BG01 cells ([4]; conditioned medium): undergo morphological change | expression of AFP (immunofluorescence double-staining) [8]: no significant expression of AFP | activity of S6kinase and S6 [9]: abolished | markers indicative of early differentiation (RT-PCR) [11]: detected

From US8187878B2, “Methods for increasing definitive endoderm differentiation of pluripotent human embryonic stem cells with PI-3 kinase inhibitors” (University of Georgia Research Foundation, Inc., priority 2004, dated 2012)
